Measurements reported in patent EP4843985A1, “TRIAZOLOPYRIMIDINE DERIVATIVE, PREPARATION METHOD THEREFOR AND USE THEREOF” (dated 2026).
The structures given here were assigned with low confidence; some may be wrong.

Columns and labels:
[1] = Plasma protein binding rate (equilibrium dialysis), rat; conditions: 5 µM, 6 hours dialysis
Protocol: (§1) The purpose of this test was to evaluate the protein binding rate of the test drug in plasma of human, monkey, dog, rat and mouse using the equilibrium dialysis method.
(§2) Plasma (EDTA-K2 anticoagulated) was stored in a -80°C freezer. Stop solution, acetonitrile (containing 100 nM alprazolam, 200 nM caffeine, and 100 nM tolbutamide as internal standards).
(§3) The test article and the control compound ketoconazole were prepared as high-concentration DMSO stock solutions and diluted to 1 mM working solution, with a final test concentration of 5 µM.
(§4) NaH2PO4 (12.0 g) and NaCl (8.77 g) were weighed and dissolved in 1 L of water to prepare an alkaline solution. Na2HPO4 (14.2 g) and NaCl (8.77 g) were weighed and dissolved in 1 L of water to prepare an acidic solution. The alkaline solution and the acidic solution were titrated to pH 7.4.
(§5) The temperatures of the water bath and incubator were pre-adjusted to 37°C. The plasma was removed from -80°C, rapidly thawed in a 37°C water bath, and centrifuged at 2000 g for 5 minutes at room temperature. The clot was removed, and the supernatant was transferred to a new centrifuge tube. The pH of the plasma was tested and recorded. (Note: a. Only plasma with a pH range of 7.2-7.8 was used. b. Only plasma that had been thawed no more than twice after receipt was used.)
(§6) The equilibrium dialysis membrane was soaked in pure water for 60 minutes, then in 20% ethanol for 20 minutes, and finally in dialysis buffer for 20 minutes. The soaked dialysis membrane was then spread flat on a clean HTDialysis clamping device, and the dialysis device was assembled according to the product manual.
(§7) 3 µL of the working solution of the test drug and the control drug was taken and added to 597 µL of pre-incubated plasma, and mixed thoroughly. The final organic solvent content in the incubation system was 0.5%. […]
(§8) All data calculations were performed using Microsoft Excel software. The concentrations of the drug in free samples and plasma samples were determined. […]

[2] = Plasma protein binding rate (equilibrium dialysis), monkey; conditions: 5 µM, 6 hours dialysis
Protocol: as §1, §2, §3, §4, §5, §6, §7, §8

[3] = Plasma protein binding rate (equilibrium dialysis), mouse; conditions: 5 µM, 6 hours dialysis
Protocol: as §1, §2, §3, §4, §5, §6, §7, §8

[4] = system: human endometrial Ishikawa cell subcutaneous xenograft tumor; experiment: In vivo pharmacodynamic study in the Ishikawa xenograft tumor model
Protocol: To evaluate the in vivo efficacy of the compounds in a human endometrial Ishikawa cell subcutaneous xenograft tumor mouse model.
• Species: Mouse • Strain: Balb/c Nude mouse • Age and body weight: 6-8 weeks of age, weighing 20-24 g • Sex: Female • Quantity: 115 (including remaining mice from grouping) • Supplier: Zhejiang Vital River Laboratory Animal Technology Co., Ltd. • Animal certificate: 20240822Abzz0619000609
Human endometrial cancer Ishikawa cells (ECACC, 99040201) were cultured in vitro under the following conditions: DMEM medium supplemented with 10% fetal bovine serum, 1% antibiotics, 2 mM glutamine, 1% non-essential amino acids, 1 mM sodium pyruvate, and 1.5 g/L sodium bicarbonate, at 37°C in a 5% CO2 cell incubator. Routine passaging was performed by centrifugation twice a week. When the cell confluence reached 80% to 90% and the cell number met the requirement, the cells were harvested, counted, and inoculated.
A 0.2 mL cell suspension containing 1.0*10^7 Ishikawa cells (the cells were suspended in medium DMEM:Matrigel = 1:1) was subcutaneously inoculated into the right dorsal flank of each mouse. […]
The health status and mortality of the animals were monitored daily. Routine inspections included observing the effects of tumor growth and drug treatment on the animals' daily behavioral performance, such as behavioral activity, food and water intake (visual inspection only), body weight changes (body weight was measured three times per week), appearance signs, or other abnormal conditions. Based on the number of animals in each group, the number of animal deaths and side effects within the group were recorded.
Tumor diameters were measured twice per week using a vernier caliper. […]
The anti-tumor efficacy of the compounds was evaluated by the tumor growth inhibition rate TGI (%). […]
At the end of the experiment, tumors were excised from the mice, weighed, and the tumor inhibition rate was calculated. […]

## [2H]C1([2H])CCC(c2nc3n4c(c(N5CCN(C(=O)c6ncnc(C)c6O)[C@H]6CC[C@@H]65)c(=O)n3n2)[C@H](C)C[C@@H]4C(=O)Nc2scc(C(F)(F)F)c2C)=CCO1
[1]
  Bound percentage: 87.87
  Free percentage: 12.13
  Recovery rate: 93.6%
[2]
  Bound percentage: 96.40
  Free percentage: 3.60
  Recovery rate: 92.3%
[3]
  Bound percentage: 91.64
  Free percentage: 8.36
  Recovery rate: 95.4%
[4]; 1 mg/kg
  anti-tumor effects (in words): significant anti-tumor effects
[4]; 3 mg/kg
  anti-tumor effects (in words): significant anti-tumor effects
[4]; 10 mg/kg
  anti-tumor effects (in words): significant anti-tumor effects
